Test results published in PMC11514447, “Eukaryotic initiation factor 4B is a multi-functional RNA binding protein that regulates histone mRNAs”.
No constants are given. Whether binding was seen depends on the method and setting. In cells and extracts the contact can be indirect. Some entries that bind do so weakly or less than the wild type.

Amino acid sequences for entries named in this document (tags omitted).
UniProt P23588: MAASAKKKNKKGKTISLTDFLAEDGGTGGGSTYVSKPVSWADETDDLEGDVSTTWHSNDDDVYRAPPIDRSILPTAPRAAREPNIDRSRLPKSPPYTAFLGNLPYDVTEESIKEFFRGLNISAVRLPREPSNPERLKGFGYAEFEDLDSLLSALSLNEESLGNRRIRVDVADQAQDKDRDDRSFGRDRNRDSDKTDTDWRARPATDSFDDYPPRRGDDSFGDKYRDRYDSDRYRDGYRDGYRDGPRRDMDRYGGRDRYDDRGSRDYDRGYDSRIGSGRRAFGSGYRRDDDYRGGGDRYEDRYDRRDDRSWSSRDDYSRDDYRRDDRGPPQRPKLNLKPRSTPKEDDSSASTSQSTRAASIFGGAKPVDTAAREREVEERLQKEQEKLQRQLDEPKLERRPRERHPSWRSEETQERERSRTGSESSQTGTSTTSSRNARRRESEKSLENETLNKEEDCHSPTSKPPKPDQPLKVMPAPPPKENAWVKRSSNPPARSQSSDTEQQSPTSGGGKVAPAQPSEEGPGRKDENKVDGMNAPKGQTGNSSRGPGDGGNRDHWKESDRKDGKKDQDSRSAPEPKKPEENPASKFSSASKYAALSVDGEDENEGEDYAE
UniProt P60842: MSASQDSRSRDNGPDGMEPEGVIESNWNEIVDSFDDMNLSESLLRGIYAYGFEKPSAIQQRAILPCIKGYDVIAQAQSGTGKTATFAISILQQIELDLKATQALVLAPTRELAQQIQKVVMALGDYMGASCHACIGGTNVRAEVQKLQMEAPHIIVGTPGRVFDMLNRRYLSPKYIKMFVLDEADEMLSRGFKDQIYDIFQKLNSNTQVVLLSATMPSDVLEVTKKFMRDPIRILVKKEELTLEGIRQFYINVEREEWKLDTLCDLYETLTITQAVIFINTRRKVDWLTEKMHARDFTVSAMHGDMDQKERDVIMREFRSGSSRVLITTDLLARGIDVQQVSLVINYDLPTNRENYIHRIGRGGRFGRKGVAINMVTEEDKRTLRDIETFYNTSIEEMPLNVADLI
UniProt P38919: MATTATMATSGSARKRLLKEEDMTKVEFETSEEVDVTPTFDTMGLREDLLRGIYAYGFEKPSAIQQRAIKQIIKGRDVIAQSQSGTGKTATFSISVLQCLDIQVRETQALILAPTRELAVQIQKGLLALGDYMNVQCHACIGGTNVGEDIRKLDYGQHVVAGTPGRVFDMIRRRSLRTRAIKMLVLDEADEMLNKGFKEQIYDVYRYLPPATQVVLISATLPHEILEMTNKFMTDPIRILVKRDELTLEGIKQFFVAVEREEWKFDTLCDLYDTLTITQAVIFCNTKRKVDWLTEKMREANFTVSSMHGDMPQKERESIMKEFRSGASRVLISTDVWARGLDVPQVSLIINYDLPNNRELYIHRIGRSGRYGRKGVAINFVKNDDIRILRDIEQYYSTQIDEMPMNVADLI
UniProt Q14240: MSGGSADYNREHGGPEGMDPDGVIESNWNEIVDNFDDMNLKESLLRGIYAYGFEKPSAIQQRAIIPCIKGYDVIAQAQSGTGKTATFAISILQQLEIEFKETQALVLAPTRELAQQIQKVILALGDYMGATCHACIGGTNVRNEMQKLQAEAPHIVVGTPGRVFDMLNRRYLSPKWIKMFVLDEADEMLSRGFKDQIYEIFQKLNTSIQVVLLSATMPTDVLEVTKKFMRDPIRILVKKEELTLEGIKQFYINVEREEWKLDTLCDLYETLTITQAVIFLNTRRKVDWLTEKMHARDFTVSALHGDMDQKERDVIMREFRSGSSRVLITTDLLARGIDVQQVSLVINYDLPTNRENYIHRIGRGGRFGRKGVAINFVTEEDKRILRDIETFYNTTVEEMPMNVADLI
UniProt Q13283: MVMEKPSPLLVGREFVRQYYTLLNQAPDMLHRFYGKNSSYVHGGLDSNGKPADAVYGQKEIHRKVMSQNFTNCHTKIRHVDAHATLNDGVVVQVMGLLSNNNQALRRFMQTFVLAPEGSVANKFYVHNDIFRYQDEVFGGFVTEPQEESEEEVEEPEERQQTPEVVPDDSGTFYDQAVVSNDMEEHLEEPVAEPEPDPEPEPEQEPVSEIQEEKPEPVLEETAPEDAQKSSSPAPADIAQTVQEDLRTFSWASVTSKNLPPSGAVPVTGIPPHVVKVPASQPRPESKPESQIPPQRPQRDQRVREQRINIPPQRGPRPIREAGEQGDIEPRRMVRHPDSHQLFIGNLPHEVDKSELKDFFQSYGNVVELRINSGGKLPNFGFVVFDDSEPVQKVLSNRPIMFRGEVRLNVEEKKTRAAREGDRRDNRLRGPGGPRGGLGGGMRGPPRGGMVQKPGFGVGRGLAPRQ

B1: UPF1 (up-frameshift protein 1) (protein, UniProt Q92900 1-1129)
chain: MSVEAYGPSSQTLTFLDTEEAELLGADTQGSEFEFTDFTLPSQTQTPPGGPGGPGGGGAGGPGGAGAGAAAGQLDAQVGPEGILQNGAVDDSVAKTSQLLAELNFEEDEEDTYYTKDLPIHACSYCGIHDPACVVYCNTSKKWFCNGRGNTSGSHIVNHLVRAKCKEVTLHKDGPLGETVLECYNCGCRNVFLLGFIPAKADSVVVLLCRQPCASQSSLKDINWDSSQWQPLIQDRCFLSWLVKIPSEQEQLRARQITAQQINKLEELWKENPSATLEDLEKPGVDEEPQHVLLRYEDAYQYQNIFGPLVKLEADYDKKLKESQTQDNITVRWDLGLNKKRIAYFTLPKTDSGNEDLVIIWLRDMRLMQGDEICLRYKGDLAPLWKGIGHVIKVPDNYGDEIAIELRSSVGAPVEVTHNFQVDFVWKSTSFDRMQSALKTFAVDETSVSGYIYHKLLGHEVEDVIIKCQLPKRFTAQGLPDLNHSQVYAVKTVLQRPLSLIQGPPGTGKTVTSATIVYHLARQGNGPVLVCAPSNIAVDQLTEKIHQTGLKVVRLCAKSREAIDSPVSFLALHNQIRNMDSMPELQKLQQLKDETGELSSADEKRYRALKRTAERELLMNADVICCTCVGAGDPRLAKMQFRSILIDESTQATEPECMVPVVLGAKQLILVGDHCQLGPVVMCKKAAKAGLSQSLFERLVVLGIRPIRLQVQYRMHPALSAFPSNIFYEGSLQNGVTAADRVKKGFDFQWPQPDKPMFFYVTQGQEEIASSGTSYLNRTEAANVEKITTKLLKAGAKPDQIGIITPYEGQRSYLVQYMQFSGSLHTKLYQEVEIASVDAFQGREKDFIILSCVRANEHQGIGFLNDPRRLNVALTRARYGVIIVGNPKALSKQPLWNHLLNYYKEQKVLVEGPLNNLRESLMQFSKPRKLVNTINPGARFMTTAMYDAREAIIPGSVYDRSSQGRPSSMYFQTHDQIGMISAGPSHVAAMNIPIPFNLVMPPMPPPGYFGQANGPAAGRGTPKGKTGRGGRQKNRFGLPGPSQTNLPNSQASQDVASQPFSQGALTQGYISMSQPSQMSQPGLSQPELSQDSYLGDEFKSQIDVALSQDSTYQGERAYQHGGVTGLSQY

Target: eukaryotic initiation factor 4B (human (endogenous in DoHH-2 and GM01953)) (UniProt P23588)
Assay: co-IP; eIF4B antibody (or rabbit IgG) coupled to Dynabeads; DoHH-2 and GM01953 cell lysates; RNA digested with RNase T1; immunoblotting

binding	Molecule
binds	eIF4A1 (from UniProt P60842 1-406)
binds	eIF4A3 (from UniProt P38919 1-411)
binds	eIF4A2 (from UniProt Q14240 1-407)
binds	G3BP1 (from UniProt Q13283 1-466)
binds	B1
